In all, about 310,000 compounds went through this assay and about 17,000 (5.5%) were called active. Inconclusive means that the source gave no clear call. Such entries were picked first, then a sample of the others. Calls follow the shape of the dose curve; as a rule, active = well fitted inhibition curve with a large enough effect; inconclusive = small, poorly fitted or top-dose-only effect, or effect the other way; inactive = no such curve, though single readings can be large or run the other way. Potencies of inconclusive entries are doubtful fits and often do not repeat.
Target: Nuclear receptor ROR-gamma (Mus musculus) (UniProt P51450)
Assay: qHTS for inhibitors of ROR gamma transcriptional activity; also: nearly all actives have a fitted effect of over 60% in size
Settings: Drosophila S2 Gal4-RORgamma UAS-luciferase reporter, 20 h; series mostly up to 53.6 µM
Outline: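 Compounds are pin-transferred onto Drosophila Schneider cells expressing a copper-inducible Gal4–ROR gamma transactivation domain fusion. After 1 hr, copper sulfate is added to 700 uM final; luciferase is read 20 hr later.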
Potency is read from the fitted curve at half-maximal effect.

The chains behind the UniProt entries cited, without tags or fusion partners. Where a name states a change or a piece, a line headed by the entry shows the natural chain unless it says otherwise.
UniProt P51450: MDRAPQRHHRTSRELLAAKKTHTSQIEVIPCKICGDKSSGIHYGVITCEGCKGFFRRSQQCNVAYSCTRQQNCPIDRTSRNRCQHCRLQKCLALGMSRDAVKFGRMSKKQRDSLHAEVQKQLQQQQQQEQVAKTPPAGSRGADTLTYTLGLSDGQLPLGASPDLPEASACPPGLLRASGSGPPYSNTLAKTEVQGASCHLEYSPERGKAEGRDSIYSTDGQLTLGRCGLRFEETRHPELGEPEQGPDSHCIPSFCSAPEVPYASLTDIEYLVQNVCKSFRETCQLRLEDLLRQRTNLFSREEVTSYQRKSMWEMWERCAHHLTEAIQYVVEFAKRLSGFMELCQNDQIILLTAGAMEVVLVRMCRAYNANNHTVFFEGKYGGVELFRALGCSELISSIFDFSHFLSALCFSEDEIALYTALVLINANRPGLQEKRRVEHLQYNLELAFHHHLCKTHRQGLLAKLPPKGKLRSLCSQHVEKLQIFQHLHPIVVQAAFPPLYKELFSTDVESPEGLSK

SMILES | Potency
C(=N\Nc1nc2ccccc2[nH]1)/c1cccc2nccnc12 | active: 1 µM
CC(C)(C)c1csc(NC(=O)c2cccnc2)n1 | inconclusive: 14.1 µM [activator, partial curve]
CC(C)(C)C1CCc2c(sc(NC(=O)C3CC=CCC3C(=O)O)c2C#N)C1 (centres undefined) | inconclusive: 15.8 µM [activator, partial curve, poor fit]
CCN1CCN(c2c(Cl)cccc2NC(=O)c2ccc3c(c2)OCCO3)CC1 | inactive
CCCS(=O)(=O)N1CCN(C(=O)COc2ccccc2)CC1 | inconclusive: 17.8 µM [activator, single point]
CCOc1ccc(-c2nc(CSCC(=O)NC3CC3)c(C)o2)cc1 | active: 8.91 µM
O/N=C\c1cccn1-c1ccc(Br)cc1 | inconclusive: 35.5 µM [inhibitor, single point]
c1ccc(-c2nnc(SCc3nc4ccccc4[nH]3)n2Cc2ccco2)cc1 | active: 11.2 µM
Cc1cc(/C([O-])=C(/C(=S)Nc2ccccc2)[n+]2ccccc2)c(C)n1-c1ccccc1 | inconclusive: 35.5 µM [inhibitor, single point]
Cc1ccc(NC(=O)N2CCN(c3ncccc3C(F)(F)F)CC2)cc1 | inconclusive: 35.5 µM [activator, single point]
CC1(C)Cc2ccccc2-c2nc3n(c(=O)c21)CCS3 | inconclusive: 22.4 µM [activator, single point]
Fc1ccc(CSc2nnc(-c3ccccn3)o2)cc1 | inconclusive: 2.24 µM [inhibitor, partial curve, poor fit]
CCC1=NN(C(=O)c2ccccc2Br)C(O)(c2ccc(Br)cc2)C1 (centres undefined) | active: 8.91 µM
O=C(c1cccc(C(F)(F)F)c1)N1CCC(O)(CS(=O)(=O)Cc2ccccc2)CC1 | inconclusive: 7.94 µM [activator, single point]
N#Cc1ccc(C(=O)Nc2ccn(-c3ccccc3)n2)cc1 | inactive
C=CCc1ccc(OC(=O)c2ccccc2)c(OC)c1 | inconclusive: 35.5 µM [activator, single point]
CCCCNS(=O)(=O)c1ccc(NC(=O)C(Sc2ccccc2)c2ccccc2)cc1 (centres undefined) | inconclusive: 12.6 µM [activator, partial curve]
C=C(C)Cn1c(CCNC(=O)C(C)C)nc2ccccc21 | inactive
COc1ccc(OC)c(NC(=O)C(CC(=O)O)NCc2ccco2)c1 (centres undefined) | inactive
CN(C)CCNS(=O)(=O)c1ccc(N2CCc3ccccc32)c([N+](=O)[O-])c1 | inactive
COC(=O)c1cc([N+](=O)[O-])c(-n2cncn2)c([N+](=O)[O-])c1 | inactive
COc1ccc(C2C=C(C34CC5CC(CC(C5)C3)C4)NC(=S)N2)cc1 (centres undefined) | active: 0.794 µM
CC(C)(C)NC(=S)NC(C)(C)C | active: 11.2 µM
COc1ccccc1C1(O)CCN(CCCn2c3ccccc3c3ccccc32)CC1 | inactive
CN(C)CCC(=O)c1ccc2c(c1)OCO2 | active: 2.24 µM

12 entries from above, in markdown:

| SMILES | Potency |
| --- | --- |
| C(=N\Nc1nc2ccccc2[nH]1)/c1cccc2nccnc12 | active: 1 µM |
| CC(C)(C)c1csc(NC(=O)c2cccnc2)n1 | inconclusive: 14.1 µM [activator, partial curve] |
| CC(C)(C)C1CCc2c(sc(NC(=O)C3CC=CCC3C(=O)O)c2C#N)C1 (centres undefined) | inconclusive: 15.8 µM [activator, partial curve, poor fit] |
| CCN1CCN(c2c(Cl)cccc2NC(=O)c2ccc3c(c2)OCCO3)CC1 | inactive |
| CCCS(=O)(=O)N1CCN(C(=O)COc2ccccc2)CC1 | inconclusive: 17.8 µM [activator, single point] |
| CCOc1ccc(-c2nc(CSCC(=O)NC3CC3)c(C)o2)cc1 | active: 8.91 µM |
| O/N=C\c1cccn1-c1ccc(Br)cc1 | inconclusive: 35.5 µM [inhibitor, single point] |
| c1ccc(-c2nnc(SCc3nc4ccccc4[nH]3)n2Cc2ccco2)cc1 | active: 11.2 µM |
| Cc1cc(/C([O-])=C(/C(=S)Nc2ccccc2)[n+]2ccccc2)c(C)n1-c1ccccc1 | inconclusive: 35.5 µM [inhibitor, single point] |
| Cc1ccc(NC(=O)N2CCN(c3ncccc3C(F)(F)F)CC2)cc1 | inconclusive: 35.5 µM [activator, single point] |
| CC1(C)Cc2ccccc2-c2nc3n(c(=O)c21)CCS3 | inconclusive: 22.4 µM [activator, single point] |
| Fc1ccc(CSc2nnc(-c3ccccn3)o2)cc1 | inconclusive: 2.24 µM [inhibitor, partial curve, poor fit] |

Next results.

SMILES | Potency
CC1Cc2ccccc2N1Cc1cc(=O)n2ccsc2n1 (centres undefined) | inactive
COC(=O)/C(=C\C(=O)c1ccccc1)Nc1cccc(C(F)(F)F)c1 | inconclusive: 35.5 µM [inhibitor, single point]
CNC(=S)NNC(=O)c1ccccc1Cl | inconclusive: 2.82 µM [inhibitor, partial curve, poor fit]
Cc1ccc(-n2nc(C)c(/C=N/n3c(C)n[nH]c3=S)c2Cl)cc1 | active: 3.55 µM
O=C(CCN1C(=O)/C(=C/c2ccccc2)SC1=S)Nc1cccnc1 | inconclusive: 10 µM [activator, partial curve]
CCN(Cc1ccccc1)C(=O)CCCOc1ccccc1 | inconclusive: 5.01 µM [activator, partial curve]
Cc1c(Cl)sn(-c2ccc(Cl)cc2)c1=O | active: 1.58 µM
O=C(N/N=C/c1ccc(Sc2ccccn2)o1)c1cccc([N+](=O)[O-])c1 | active: 3.98 µM
Cc1ccc(OCCCSc2n[nH]c(N)n2)cc1 | inactive
O=C(CSc1nccc(=O)[nH]1)Nc1ccc(N2CCOCC2)cc1 | inconclusive: 15.8 µM [inhibitor, single point]
COc1cc(NS(=O)(=O)c2ccc(NC(=O)/C=C/c3cccc([N+](=O)[O-])c3)cc2)ncn1 | inconclusive: 3.55 µM [activator, full curve, poor fit]
C=C(C)CCC(C)N1CCC(n2nccc2NC(=O)CCOc2ccccc2)CC1 (centres undefined) | inactive
C/C(=N\Nc1ccc(C#N)cc1[N+](=O)[O-])c1ccc(C)o1 | inconclusive: 0.398 µM [activator, full curve]
CCCn1nc(NC(=O)c2cccs2)c2cc3cccc(C)c3nc21 | inconclusive: 35.5 µM [inhibitor, single point]
CCNC(=S)N1CCN=C1Nc1nc(C)cc(C)n1 | active: 17.8 µM
C=CCNC(=S)NNC(=O)c1ccccc1 | inconclusive: 14.1 µM [inhibitor, single point]
O=C/C(=C\Nc1ccccn1)c1nc2ccccc2o1 | inconclusive: 35.5 µM [inhibitor, single point]
CCOc1cc(N2CCOCC2)c(OCC)cc1NC(=O)CN1C(=O)NC2(CCCCCCC2)C1=O | inconclusive: 17.8 µM [activator, partial curve, poor fit]
COc1ccc(CNC(=S)Nc2cccc(F)c2)cc1 | active: 10 µM
CCn1cc(C2=NC(CCSC)CO2)c2ccccc21 (centres undefined) | active: 7.94 µM
CCCCc1nc2cc(C(=O)NCc3cc(C)n(C)n3)ccc2o1 | inconclusive: 14.1 µM [activator, single point]
CCOC(=O)N1CCC(NC(=O)CCc2c(C)nc3c(c(C)nn3C(C)(C)C)c2C)CC1 | inconclusive: 31.6 µM [activator, single point]
COc1ccc(/C=N/NC(=O)c2ccccc2[N+](=O)[O-])cc1CN1CCc2cc(OC)c(OC)cc2C1C (centres undefined) | inactive
CSCC(C)N1CCC(n2nccc2NC(=O)CCOc2ccccc2)CC1 (centres undefined) | inactive
